Measured values taken from PubChem BioAssay (NCATS).
Inconclusive means that the source gave no clear call. Such entries were picked first, then a sample of the others. For some assays here: Potencies of inconclusive entries are doubtful fits and often do not repeat. The source made the active and inactive calls. The call rests on the fitted dose curve; in most records, active means well fitted curve in the direction sought with a large enough effect; inconclusive means small, poorly fitted or top-dose-only effect, or another doubt; inactive means no such curve, though single readings can be large; an effect the other way counts as inactive or inconclusive.

Legend:
[1] = Quantitative High-Throughput drug screen in 47 multiple myeloma cell lines against the NCATS MIPE library collection: EJM_DSMZ cell viability assay (AID 1918926; further: nearly all actives have a fitted effect of over 30% in size)
Outline: (§1)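 Steps: seed 500 cells per well; pin-transfer MIPE 4.0 library; incubate 48 h at 37C, 5% CO2, humidified; add CellTiter-Glo, 5 min room temperature; read luminescence.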

[2] = Quantitative High-Throughput drug screen in 47 multiple myeloma cell lines against the NCATS MIPE library collection: AMO1_DSMZ cell viability assay (AID 1918927; further: nearly all actives have a fitted effect of over 30% in size)
Outline: as §1

[3] = Quantitative High-Throughput drug screen in 47 multiple myeloma cell lines against the NCATS MIPE library collection: ARP1_JJKsccF8 cell viability assay (AID 1918928; further: nearly all actives have a fitted effect of over 40% in size)
Outline: (§2)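 Here, 48 h treatment with MIPE 4.0 agents at 37 °C preceded an ATP luminescence read. Plating density was 500 cells per well.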

[4] = Quantitative High-Throughput drug screen in 47 multiple myeloma cell lines against the NCATS MIPE library collection: ARD_JJKsccE7 cell viability assay (AID 1918929); settings: ARD myeloma cell line viability, CellTiter-Glo, 48 h; viability: at 45.8 µM (top of the series)
Outline: as §1

[5] = Quantitative High-Throughput drug screen in 47 multiple myeloma cell lines against the NCATS MIPE library collection: Karpas417_ECACC cell viability assay (AID 1918961); settings: Karpas417 myeloma viability, CellTiter-Glo ATP luminescence, 48 h; viability (% of DMSO): at 45.8 µM (top of the series)
Outline: (§3)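 We plated 500 myeloma cells per well, pinned in MIPE 4.0 compounds, and incubated for 48 hours at 37C. ATP was then quantified with CellTiter-Glo, with DMSO and media-only wells defining 100% and 0%.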

[6] = Quantitative High-Throughput drug screen in 47 multiple myeloma cell lines against the NCATS MIPE library collection: JJN3_DSMZ cell viability assay (AID 1918966; further: nearly all actives have a fitted effect of over 50% in size); settings: JJN3 myeloma cells viability, CellTiter-Glo ATP, 48 h; viability, % of DMSO: at 45.8 µM (top of the series)
Outline: as §1

[7] = Quantitative High-Throughput drug screen in 47 multiple myeloma cell lines against the NCATS MIPE library collection: KMM1_JCRB cell viability assay (AID 1918960); settings: KMM1 myeloma viability, CellTiter-Glo ATP luminescence, 48 h; viability (% of DMSO): at 45.8 µM (top of the series); further: nearly all actives have a fitted effect of over 30% in size
Outline: as §2

[8] = Quantitative High-Throughput drug screen in 47 multiple myeloma cell lines against the NCATS MIPE library collection: KHM11_PLB cell viability assay (AID 1918962); settings: KHM11 myeloma cell viability, CellTiter-Glo ATP luminescence, 48 h; series mostly up to 45.8 µM; further: nearly all actives have a fitted effect of over 35% in size
Outline: (§4)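 Primary qHTS used for cherry-picking: cells at 500/well, library compounds for 48 h (37C, 5% CO2), luminescent ATP assay.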

[9] = Quantitative High-Throughput drug screen in 47 multiple myeloma cell lines against the NCATS MIPE library collection: JIM3_ECACC cell viability assay (AID 1918963; further: nearly all actives have a fitted effect of over 35% in size)
Outline: as §4

[10] = Quantitative High-Throughput drug screen in 47 multiple myeloma cell lines against the NCATS MIPE library collection: KMS27_JCRB cell viability assay (AID 1918970); settings: KMS27 myeloma cells, CellTiter-Glo ATP viability, 48 h; viability (% of DMSO): at 45.8 µM (top of the series); further: nearly all actives have a fitted effect of over 30% in size
Outline: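 Myeloma cells (500 per well) were exposed to MIPE 4.0 compounds for 48 h at 37 °C, 5% CO2; viability was read as ATP luminescence with CellTiter-Glo, normalized to DMSO-only (100%) and media-only (0%) wells.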

[11] = Quantitative High-Throughput drug screen in 47 multiple myeloma cell lines against the NCATS MIPE library collection: JIM1_ECACC cell viability assay (AID 1918964); settings: JIM1 myeloma viability, CellTiter-Glo ATP luminescence, 48 h; viability (% of DMSO): at 45.8 µM (top of the series)
Outline: as §1

[12] = Quantitative High-Throughput drug screen in 47 multiple myeloma cell lines against the NCATS MIPE library collection: INA6_PLB cell viability assay (AID 1918965; further: nearly all actives have a fitted effect of over 55% in size); settings: INA6 myeloma viability, CellTiter-Glo ATP luminescence, 48 h; viability (% of control): at 45.8 µM (top of the series)
Outline: as §3

[13] = Quantitative High-Throughput drug screen in 47 multiple myeloma cell lines against the NCATS MIPE library collection: H1112_PLB cell viability assay (AID 1918967; further: nearly all actives have a fitted effect of over 30% in size)
Outline: as §1

[14] = Quantitative High-Throughput drug screen in 47 multiple myeloma cell lines against the NCATS MIPE library collection: Karpas25_ECACC cell viability assay (AID 1918968; further: nearly all actives have a fitted effect of over 35% in size); settings: Karpas25 myeloma viability, CellTiter-Glo ATP, 48 h; viability (% of control): at 45.8 µM (top of the series)
Outline: as §1

[15] = Quantitative High-Throughput drug screen in 47 multiple myeloma cell lines against the NCATS MIPE library collection: Karpas620_DSMZ cell viability assay (AID 1918959); settings: Karpas620 myeloma viability, CellTiter-Glo ATP luminescence, 48 h; viability (% of DMSO): at 45.8 µM (top of the series); further: nearly all actives have a fitted effect of over 30% in size
Outline: as §4
Potency means the concentration at half of the fitted maximal effect.

| SMILES | Potency [1] | Potency [2] | Potency [3] | Potency [4] | Potency [5] | Potency [6] | Potency [7] | Potency [8] | Potency [9] | Potency [10] | Potency [11] | Potency [12] | Potency [13] | Potency [14] | Potency [15] |
| --- | --- | --- | --- | --- | --- | --- | --- | --- | --- | --- | --- | --- | --- | --- | --- |
| CC(C)CNc1ccnc(NCc2csc(-c3ccccc3)n2)n1 | inconclusive: 23.5 µM [cytotoxic, partial curve] | active: 10.5 µM | inconclusive: 10.5 µM [cytotoxic, partial curve, poor fit] | active: 5.9 µM | active: 16.6 µM | inconclusive: 18.7 µM [cytotoxic, partial curve, poor fit] | – | – | – | – | – | – | – | – | – |
| CC(C)(O)c1cc2nc(-c3cnc(N)nc3)nc(N3CCOCC3)c2s1 | active: 0.743 µM | – | – | active: 0.105 µM | active: 0.0148 µM | active: 0.059 µM | active: 0.0332 µM | inconclusive: 0.0743 µM [cytotoxic, full curve] | inconclusive: 0.132 µM [cytotoxic, full curve] | inconclusive: 0.0209 µM [cytotoxic, full curve, poor fit] | – | – | – | – | – |
| COc1cccc2c1CCCC2CCCN1CCN(C2CCCCC2)CC1 (stereo not drawn) | inconclusive: 20.9 µM [cytotoxic, single point] | – | active: 18.7 µM | inconclusive: 26.4 µM [cytotoxic, single point] | inconclusive: 20.9 µM [cytotoxic, partial curve, poor fit] | – | – | active: 18.7 µM | – | – | inconclusive: 37.2 µM [cytotoxic, single point] | active: 16.6 µM | inconclusive: 23.5 µM [cytotoxic, partial curve] | active: 18.7 µM | – |
| Cc1cc(O)c2c(c1)C(=O)c1cc(O)cc(O)c1C2=O | inconclusive: 37.2 µM [cytotoxic, single point] | inactive | inconclusive: 14.8 µM [cytotoxic, partial curve, poor fit] | inactive | inactive | inconclusive: 13.2 µM [cytotoxic, partial curve, poor fit] | inactive | inconclusive: 6.62 µM [cytotoxic, single point] | inactive | – | inactive | inactive | inactive | – | – |
| O=C(O)c1cccnc1Nc1cccc(C(F)(F)F)c1 | inactive | – | – | inactive | inconclusive: 14.8 µM [cytotoxic, single point] | inconclusive: 0.0332 µM [rising, full curve, poor fit] | – | inconclusive: 0.148 µM [rising, full curve, poor fit] | – | – | inconclusive: 0.0053 µM [cytotoxic, full curve, poor fit] | inactive | – | inconclusive: 37.2 µM [cytotoxic, single point] | – |
| CC(C)(C(=O)NCC(F)(F)C(F)(F)F)C(=O)N[C@@H]1C(=O)Nc2ccccc2-c2ccccc21 | inactive | – | inactive | inconclusive: 26.4 µM [cytotoxic, single point] | inconclusive: 0.0023 µM [cytotoxic, full curve, poor fit] | inconclusive: 13.2 µM [cytotoxic, partial curve, poor fit] | – | inconclusive: 33.2 µM [cytotoxic, single point] | inconclusive: 18.7 µM [cytotoxic, partial curve] | active: 1.32 µM | inconclusive: 26.4 µM [cytotoxic, partial curve, poor fit] | – | – | inconclusive: 33.2 µM [cytotoxic, single point] | active: 2.35 µM |
| COc1ncc(-c2ccc3nccc(-c4ccnnc4)c3c2)cc1NS(=O)(=O)c1ccc(F)cc1F | inconclusive: 7.43 µM [cytotoxic, partial curve] | active: 0.0469 µM | inconclusive: 0.003 µM [cytotoxic, partial curve, poor fit] | inconclusive: 0.0418 µM [cytotoxic, full curve] | inactive | active: 0.118 µM | inconclusive: 0.132 µM [cytotoxic, full curve] | inconclusive: 0.003 µM [cytotoxic, full curve] | inconclusive: 0.662 µM [cytotoxic, full curve] | inconclusive: 0.0235 µM [cytotoxic, full curve] | inconclusive: 0.059 µM [cytotoxic, full curve] | – | inconclusive: 1.18 µM [cytotoxic, full curve] | inconclusive: 0.0019 µM [cytotoxic, full curve] | inconclusive: 0.166 µM [cytotoxic, full curve] |
